In patent US20160235752A1, “COMPOSITIONS, METHODS OF USE, AND METHODS OF TREATMENT” (THE UNIVERSITY OF NEW ORLEANS, priority 2013, published 2016):
Some entries share one result that the patent states for a list of compounds. Some ranges recur; such a range may be that of the whole group of compounds.

Tests used:
[1] = tested on: Candida albicans (ATCC no. 10231) and Candida glabrata (ATCC no 48435); test: Antifungal activity, text statements that do not say which fungus; format: cell-based; details: typically in the range; Table 7
Experimental: The antifungal activity of the 2,4,6-pyrimidinetrione analogs shown in Schemes 2-6 were evaluated in vitro using Candida albicans (ATCC no. 10231) and Candida glabrata (ATCC no 48435). All assays were done in accordance with NCCLS reference documents^29. The results of these screenings are summarized in Tables 1-9 as the minimal inhibitory concentrations that inhibited more than 80% fungal growth as compared to the positive controls in 1% DMSO and RPMI media. All MIC screens were done using a visual scoring method as opposed to spectroscopic methods of analysis, due to the physical properties of many of the compounds altering their absorbance spectra relative to the positive, negative and drug controls.
None of the compounds tested over the course of these studies were soluble in water and DMSO was used to dilute each compound tested. Master stock concentrations of all tested compounds were prepared to ensure that the maximum final concentration of DMSO was 1% or less. Subsequent 2-fold serial dilutions were made using sterile water to a final concentration of 1280-5.00 μg/ml. A final 10-fold dilution of each drug was made by aliquotting 0.1 mL of each drug dilution into 0.9 mL of fungal suspension in RPMI 1640 media with 10 mM HEPES buffer added (see methodology below), giving final concentrations tested in the range of 128-0.5 μg/ml.
Antifungal susceptibility studies and minimal inhibitory concentrations (MIC) values for Candida albicans (ATCC no. 10231) and Candida glabrata (ATCC no. 48435) were determined by the broth microdilution technique in accordance with NCCLS reference documents. Microdilution panels ranged from 0.5 to 128 μg/mL. All organisms were subcultured on Sabouraud agar and passaged to ensure purity and viability. The initiating inocula were prepared by picking 5-7 isolated colonies ˜1 mm in diameter from freshly prepared YM agar plates. Colonies were resuspended in sterile water, vortexed and the cell density was adjusted spectrophotometrically to the transmittance of a 0.5 McFarland standard at a wavelength of 530 nm, to yield a stock suspension of 1×10^6-5×10^6 cells/mL. The stock was allowed to hydrate for 30 minutes at room temperature. A working suspension was then made by diluting the stock 1:50 with RPMI 1640 media containing HEPES buffer. The working suspension was used for all assays. The plates were incubated at 35° C. for 48-72 hours in a humid atmosphere. Growth was scored visually. MIC values are defined as the lowest concentration of agent that prevents any discernible growth, ˜80% reduction of growth, as compared with drug-free control wells. All assays were run in parallel using either fluconazole or amphotericin B at the NCCLS recommended concentrations^29 as a drug control (Sigma-Aldrich).

[2] = tested on: Vero cells (African green monkey kidney cells-ATCC no. CRL-1651); test: In vitro mammalian cell toxicity (Promega CellTiter 96, MTT); format: cell-based; details: concentration 10 times higher than the MIC, 24 hours, negative control set to 100%
Experimental: Finally, in vitro mammalian cell toxicity studies were done using both mammalian kidney cells and human liver cells (Vero (kidney) cells-ATCC no. CRL-1651 and Hep G2 (liver) ATCC no. HB-8065) on all derivatives that had antifungal activity of less than 8 μg/mL. Cytotoxicity studies were performed in accordance with Promega CellTiter 96 Non-RadioactivCell Proliferation Assay (cat # G4000). The data is presented as the percent cells that remain viable, compared to the negative control, which was set to 100%. BA22, BA23 and BA73 had minimal toxicity in the kidney cells, with over 80% cells viable even at a concentration 10 times higher than the MIC (Table 7).
Cytotoxicity was determined using non-cancerous Vero cells (African green monkey kidney cells-ATCC no. CRL-1651) and Hep G2 (liver) (ATCC no. HB-8065) cells in accordance with Promega CellTiter 96 Non-RadioactivCell Proliferation Assay (cat # G4000). Cells were grown for 24 h at 37° C. and 5% CO2 in a 96-well culture plate. All compounds with MIC≦8 μg/ml were further screened in the MTT assays using both cell types. Compounds that fit these criteria were diluted in media to the testing dilution amounts: the MIC concentration (shown in respective tables; 5×MIC; 10×MIC and 100×MIC. The media used to grow cells was DMEM containing 10% FBS and 2%. Cells were incubated in the presence of the compounds for 24 hours at 37° C. and 5% CO2. Tetrazolium dye solution was added to each well and allowed to incubate for 1-4 h. Stabilization/Stop solution was added and allowed to sit at room temperature for 1 h. Formazan product was scored spectrophotometrically with an automatic plate reader set at 570 nm. 0.1% saponin was used as a positive control. 1% DMSO controls were also used since the compounds were reconstituted in DMSO.

| Structure (SMILES) | dilutions through which over 80% inhibition could be observed [1] [µg/mL] | cells viable [2] |
| --- | --- | --- |
| CN1C(=O)C(/C=N/Nc2ccc([N+](=O)[O-])cc2)C(=O)N(C)C1=O [BA23, 1,3-Dimethyl-5-{(E)-[2-(4-nitrophenyl)hydrazinylidene]methyl}pyrimidine-2,4,6-trione] | 2 to 4 | over 80% |
| C/C(=N\Nc1ccc([N+](=O)[O-])cc1)C1C(=O)NC(=O)NC1=O [BA25, 5-{(1E)-1-[2-(4-Nitrophenyl)hydrazinylidene]ethyl}pyrimidine-2,4,6-trione] | 2 to 4 | – |
| CN1C(=O)C(/C=N/Nc2ccccc2)C(=O)N(C)C1=O [BA73, 1,3-dimethyl-5-[(E)-(2-phenylhydrazinylidene)methyl]pyrimidine-2,4,6-trione] | 2 to 4 | over 80% |
| O=C1NC(=O)C(/C=N/Nc2ccc([N+](=O)[O-])cc2)C(=O)N1 [BA22, 5-{(E)-[2-(4-nitrophenyl)hydrazinylidene]methyl}pyrimidine-2,4,6-trione] | 2 to 4 | over 80% |
| O=C1NC(=O)C(/C=N/Nc2ccccc2)C(=O)N1 [BA74, 5-[(E)-(2-phenylhydrazinylidene)methyl]pyrimidine-2,4,6-trione] | 2 to 4 | – |
| C/C(=N\Nc1ccccc1)C1C(=O)NC(=O)NC1=O [BA85, 5-[(1E)-1-(2-phenylhydrazinylidene)ethyl]pyrimidine-2,4,6-trione] | 2 to 4 | – |
| C/C(=N\Nc1ccccc1)C1C(=O)N(C)C(=O)N(C)C1=O [BA78, 1,3-dimethyl-5-[(1E)-1-(2-phenylhydrazinylidene)ethyl]pyrimidine-2,4,6-trione] | 2 to 4 | – |
